Reference: publication PMC7819943, “Rice protein-binding microarrays: a tool to detect cis-acting elements near promoter regions in rice”
Some of the results follow.

The chains behind the UniProt entries cited, without tags or fusion partners.
UniProt Q0JBA9, entry or part of it: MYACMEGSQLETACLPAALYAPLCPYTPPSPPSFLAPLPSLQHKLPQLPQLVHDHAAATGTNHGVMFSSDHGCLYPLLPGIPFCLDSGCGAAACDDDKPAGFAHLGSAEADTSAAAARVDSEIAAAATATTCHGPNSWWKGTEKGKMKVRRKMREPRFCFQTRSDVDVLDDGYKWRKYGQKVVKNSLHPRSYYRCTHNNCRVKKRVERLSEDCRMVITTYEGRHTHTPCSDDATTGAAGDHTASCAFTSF

Target: OsWRKY34 (Oryza sativa, UniProt Q0JBA9 1-250)
Test: protein-binding microarray (RPBM); PBS, 2% BSA, 51.3 ng/ul salmon testes DNA, 50 uM zinc acetate, 200 nM TF, 25 C, 1 h; high values mean tight binding
Settings: protein: recombinant; tags: N-terminal polyhistidine and DsRed monomer fusion (pET32a); label: CyDye5-dUTP incorporated in the synthesized complementary strand; 3' TTTTT single-stranded linker to array surface; dsDNA, one strand shown
In short: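 The binding signal is fluorescence intensity per array feature (arbitrary units). Readings came from an Axon 4000B scanner after a washed, 2% BSA-blocked, double-stranded custom Agilent array had been incubated for 1 h at 25 °C with 200 nM protein and 50 µM zinc acetate. The protein was a Ni–NTA-purified transcription factor fused N-terminally to polyhistidine and DsRed, expressed in E. coli BL21-CodonPlus.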

Q: For “TGTTTGAGCATTGGTATCGTATGGATAGCTCATTAGTTTTCGGAGTCACCTAGTGCAG”, which binding signal is on record?
A: 8100 fluorescence intensity (a.u.)

Q: For “GTCTCGCCGCCGCTTCGTCGCCGCCGCCGCAGCATCAGCCCGGAGTCACCTAGTGCAG”, which binding signal is on record?
A: 8180 fluorescence intensity (a.u.)

Q: For “GGGGTTTTTGGGTGATGGCCAACGCCCTTGGCCTGCAGAACGGAGTCACCTAGTGCAG”, which binding signal is on record?
A: 9040 fluorescence intensity (a.u.)

Q: With “GTCGCCTGCAGCATCTCTCCTTGGCTTCTTCAACTTACGTCGGAGTCACCTAGTGCAG” as the sequence, how does the binding signal read?
A: 11900 fluorescence intensity (a.u.)

Q: “ATTTGGCTCTTCTGTTTTTTTTTTCGCTTTCTTTTTCTCGCGGAGTCACCTAGTGCAG” was tested. Which binding signal did it give?
A: 9480 fluorescence intensity (a.u.)

Q: Which binding signal does the source give for “AATCTGACCGTGACCTATTCTGTTGCCATCTCTATGCAAGCGGAGTCACCTAGTGCAG” here?
A: 8520 fluorescence intensity (a.u.)

Q: Which binding signal does the source give for “GAAATGTCAAATATTTGTTAAAAAGTCAACGGCGTCATACCGGAGTCACCTAGTGCAG” here?
A: 11900 fluorescence intensity (a.u.)

Q: For “ATAAATTGCACCATCATCTCTCGCTTCTTGTCTTCGCAACCGGAGTCACCTAGTGCAG”, which binding signal is on record?
A: 11900 fluorescence intensity (a.u.)

Q: With “ATTGCTGCCCGTATTCCTGTGAGATCGATATATATTGCTGCGGAGTCACCTAGTGCAG” as the sequence, how does the binding signal read?
A: 8380 fluorescence intensity (a.u.)

Q: How did the binding signal turn out when “GGCAGGGGTTCGTCTTTCTTAGGTACGTTAAGAGTTGAAACGGAGTCACCTAGTGCAG” was run?
A: 12100 fluorescence intensity (a.u.)

Q: “AATAGTGGGGATGGTGCATGTATTGAGTTTGTTGCTAGAGCGGAGTCACCTAGTGCAG” was tested. Which binding signal did it give?
A: 8850 fluorescence intensity (a.u.)

Q: For “CTCTACTCCTGCCCGGAAACTTATTACTCCTTGTCACAGTCGGAGTCACCTAGTGCAG”, which binding signal is on record?
A: 12200 fluorescence intensity (a.u.)

Q: Which binding signal does the source give for “TTTTTTAGTTTCAATTTTTGTTTTGCTTTTTCTCCCTTCTCGGAGTCACCTAGTGCAG” here?
A: 10300 fluorescence intensity (a.u.)

Q: “TCTCATCCATCCGTCCCACCATGTATATACCCGCCCACCACGGAGTCACCTAGTGCAG” was tested. Which binding signal did it give?
A: 9040 fluorescence intensity (a.u.)

Q: With “ACCATTTGTGTTTATTCTTGTACATGTGCAGTGCGAGCTGCGGAGTCACCTAGTGCAG” as the sequence, how does the binding signal read?
A: 9210 fluorescence intensity (a.u.)

Q: How did the binding signal turn out when “GTGCCATCTTTTTTGTATCTTTCCTTTGATCATTTGCCTTCGGAGTCACCTAGTGCAG” was run?
A: 11600 fluorescence intensity (a.u.)

Q: With “TCTTCCTCAGCATTTCCACCGCTCTTCCACGCACCCTACTCGGAGTCACCTAGTGCAG” as the sequence, how does the binding signal read?
A: 12500 fluorescence intensity (a.u.)

Q: For “ACCGATTCCTCCGCCCCGACCTCCTCACCCACCCACCGGCCGGAGTCACCTAGTGCAG”, which binding signal is on record?
A: 8350 fluorescence intensity (a.u.)

Q: How did the binding signal turn out when “GATTTTTAGTGAATATAATGAAATTTCATAGGGGAGGGGCCGGAGTCACCTAGTGCAG” was run?
A: 8930 fluorescence intensity (a.u.)

Q: “TCTTCTTTATCTACATCTTCTTCTGCTTCTTCCTTCCAGCCGGAGTCACCTAGTGCAG” was tested. Which binding signal did it give?
A: 9230 fluorescence intensity (a.u.)

Q: “GCTGCCGCTCTCGCCATACCGACTCGTGTCGCACGGTCGCCGGAGTCACCTAGTGCAG” was tested. Which binding signal did it give?
A: 8680 fluorescence intensity (a.u.)

Q: “AAAACACCAGGTAGACTGTTCAACTGATTGGTCTCACACCCGGAGTCACCTAGTGCAG” was tested. Which binding signal did it give?
A: 8790 fluorescence intensity (a.u.)

Q: Which binding signal does the source give for “GGGCGGGGAGGGAATCGATGACTTCTTCCCCTCCCACACGCGGAGTCACCTAGTGCAG” here?
A: 8490 fluorescence intensity (a.u.)

Q: Which binding signal does the source give for “TTTTTTTTTTTTTTTGGTCTTGCTGTCTTGCGTGTATGCACGGAGTCACCTAGTGCAG” here?
A: 9690 fluorescence intensity (a.u.)

Q: How did the binding signal turn out when “TTCGCGGGTGATGTGTTTCTGTTTTGTCCTGAAATTACAGCGGAGTCACCTAGTGCAG” was run?
A: 9080 fluorescence intensity (a.u.)

Q: Which binding signal does the source give for “TGGCTGAGCTTCTTTGCGTGTTCTTGTTTGGGTTTTGGGGCGGAGTCACCTAGTGCAG” here?
A: 18700 fluorescence intensity (a.u.)

Q: For “TTCCTTGTTCCTTGTAAACACACGATGTACGTTCTTGTTCCGGAGTCACCTAGTGCAG”, which binding signal is on record?
A: 12900 fluorescence intensity (a.u.)

Q: With “GCCGCCTCATCCACCCCACGCCCACCGCCTCCGTGGACCGCGGAGTCACCTAGTGCAG” as the sequence, how does the binding signal read?
A: 8570 fluorescence intensity (a.u.)

Q: For “AGGCTGACATCCTTGACCCACATAATCGTTGACCTGGCTACGGAGTCACCTAGTGCAG”, which binding signal is on record?
A: 10300 fluorescence intensity (a.u.)

Q: For “CGTCGTTGCCCTTGCTTTTGAGTGTTTGAAAGAGTTCATGCGGAGTCACCTAGTGCAG”, which binding signal is on record?
A: 10000 fluorescence intensity (a.u.)

Q: How did the binding signal turn out when “CTTCTTTCCTATACCACCACCACCTTTCTGTGCTCCCAAACGGAGTCACCTAGTGCAG” was run?
A: 8090 fluorescence intensity (a.u.)

Q: For “ACAGTGAGTGTCAAGTTTTATATTCCTGGAATAAAGTTCACGGAGTCACCTAGTGCAG”, which binding signal is on record?
A: 8100 fluorescence intensity (a.u.)

Q: “AACGTGGAAGTGGATTGGGTGGTGGGTGGGGATCCACCTACGGAGTCACCTAGTGCAG” was tested. Which binding signal did it give?
A: 22100 fluorescence intensity (a.u.)

Q: With “TCTATTTCTTCACCTTTTTATGTTGCTATGGATTGAAATTCGGAGTCACCTAGTGCAG” as the sequence, how does the binding signal read?
A: 8260 fluorescence intensity (a.u.)

Q: How did the binding signal turn out when “CACTGATGCGGTGATGCCCGCACCGTGCCATCTCTCTCTCCGGAGTCACCTAGTGCAG” was run?
A: 9280 fluorescence intensity (a.u.)

Q: “AGCCACCTTGTCGTTTTCCGCTCCTCACCTGCTCAACTTCCGGAGTCACCTAGTGCAG” was tested. Which binding signal did it give?
A: 9800 fluorescence intensity (a.u.)

Q: “ACTGGCCGGCCGTCCGTCGTCTTGGCTCGCGGCGGCATCCCGGAGTCACCTAGTGCAG” was tested. Which binding signal did it give?
A: 8620 fluorescence intensity (a.u.)

Q: For “ATCTAGCACCCATCAGTTTTTCAGTAGTAGTGTGTGCAGACGGAGTCACCTAGTGCAG”, which binding signal is on record?
A: 8490 fluorescence intensity (a.u.)

Q: With “CTAACATGGCATACCTTCCTCTGACCAAAATGTTCGTTCTCGGAGTCACCTAGTGCAG” as the sequence, how does the binding signal read?
A: 8490 fluorescence intensity (a.u.)

Q: How did the binding signal turn out when “CCACGCTATCCCATGCGATTCGAGAAGGTTCCACACACACCGGAGTCACCTAGTGCAG” was run?
A: 8430 fluorescence intensity (a.u.)

Q: Which binding signal does the source give for “GGTCAGCGTCTCCTTCCCGGTCTCATATGCCGCCTGCGCGCGGAGTCACCTAGTGCAG” here?
A: 9220 fluorescence intensity (a.u.)

Q: “CATGTACACACCCACAGTCATCTGCTCATGTTTTCACGGTCGGAGTCACCTAGTGCAG” was tested. Which binding signal did it give?
A: 11500 fluorescence intensity (a.u.)
